Source: patent publication US20180236026A1
These are yes or no findings as the source states them, for the method shown. Binding seen in cells or lysates may run through a third protein. Some entries that bind do so weakly or less than the wild type. Sequences can lack the tags named with a protein.

Amino acid sequences for entries named in this document (tags omitted). A change or cut given only in a name is not applied to a line headed by its entry.
UniProt P32120: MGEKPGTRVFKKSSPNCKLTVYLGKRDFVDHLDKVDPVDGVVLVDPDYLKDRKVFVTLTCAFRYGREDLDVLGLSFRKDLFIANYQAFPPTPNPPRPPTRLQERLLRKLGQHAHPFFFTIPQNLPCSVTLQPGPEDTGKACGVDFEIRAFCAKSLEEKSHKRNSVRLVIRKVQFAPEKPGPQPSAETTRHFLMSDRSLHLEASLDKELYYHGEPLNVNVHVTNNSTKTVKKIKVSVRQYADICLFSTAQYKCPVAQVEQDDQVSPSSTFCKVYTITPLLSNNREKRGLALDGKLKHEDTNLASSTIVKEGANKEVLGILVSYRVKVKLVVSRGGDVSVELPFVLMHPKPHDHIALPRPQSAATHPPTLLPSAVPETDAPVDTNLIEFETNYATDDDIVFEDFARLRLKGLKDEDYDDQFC

How the values were obtained:
GST-MKK4 [1] = molecular target: T1, GST-MKK4 (UniProt P45985); assay: MBP pull-down on amylose beads, Western blot
T1 sequence (looked up): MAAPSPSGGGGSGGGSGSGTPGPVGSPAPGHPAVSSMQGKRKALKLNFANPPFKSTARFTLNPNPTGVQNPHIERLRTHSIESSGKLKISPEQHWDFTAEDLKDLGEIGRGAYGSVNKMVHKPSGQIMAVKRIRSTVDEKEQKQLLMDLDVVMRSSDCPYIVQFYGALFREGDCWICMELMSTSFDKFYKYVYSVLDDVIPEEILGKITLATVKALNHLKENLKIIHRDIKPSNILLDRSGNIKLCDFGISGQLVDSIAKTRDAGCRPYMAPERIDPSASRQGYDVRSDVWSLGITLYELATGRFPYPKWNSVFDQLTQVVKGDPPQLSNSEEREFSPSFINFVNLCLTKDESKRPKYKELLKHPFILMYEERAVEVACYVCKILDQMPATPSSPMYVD

GST-MKK4 [2] = molecular target: T1, GST-MKK4; assay: MBP pull-down on amylose resin, purified proteins

binding (GST-MKK4 [1]): binds
binding (GST-MKK4 [2]): binds
Substance: MBP-arrestin-3 (from UniProt P32120 1-420)
